Results are given in words; binding and its absence hold for the method and conditions named. In cells and extracts the contact can be indirect.
Target: HINT2 (as used in the co-IP with SLC25A51) (UniProt Q9BX68)
Experiment: co-IP; co-IP of HINT2 and SLC25A51 (Supplementary Fig. 6j); cells and constructs not told in the text shown

By UniProt entry, the sequences of proteins in these tests, tags left out. Residues count along the entry.
UniProt Q9BX68, residues 18-163: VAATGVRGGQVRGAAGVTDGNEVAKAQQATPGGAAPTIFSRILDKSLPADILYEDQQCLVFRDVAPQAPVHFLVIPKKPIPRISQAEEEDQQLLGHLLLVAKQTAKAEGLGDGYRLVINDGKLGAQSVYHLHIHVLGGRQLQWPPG

- binding: no binding
B1: Solute carrier family 25 member 51 (SLC25A51) (protein, UniProt Q9H1U9 1-297)
chain: MMDSEAHEKRPPILTSSKQDISPHITNVGEMKHYLCGCCAAFNNVAITFPIQKVLFRQQLYGIKTRDAILQLRRDGFRNLYRGILPPLMQKTTTLALMFGLYEDLSCLLHKHVSAPEFATSGVAAVLAGTTEAIFTPLERVQTLLQDHKHHDKFTNTYQAFKALKCHGIGEYYRGLVPILFRNGLSNVLFFGLRGPIKEHLPTATTHSAHLVNDFICGGLLGAMLGFLFFPINVVKTRIQSQIGGEFQSFPKVFQKIWLERDRKLINLFRGAHLNYHRSLISWGIINATYEFLLKVI
